No constants are given. Whether binding was seen depends on the method and setting. Binding seen in cells or lysates may run through a third protein. Some results given as binding are weak or reduced against the parent protein; the word gives no strength.
Assays:
Assay in all cases: co-IP
[1] = biological target: AR-V7, exogenously expressed (UniProt P10275)
[2] = biological target: p300 (endogenous p300 protein) (human (endogenous in 22Rv1)) (UniProt Q09472)
[3] = biological target: androgen receptor splice variant 7 (endogenous) (human (endogenous in 22Rv1)) (UniProt P10275)

Sequences of proteins named here, by UniProt entry; tags and fusion partners are left off. A change or cut given only in a name is not applied to a line headed by its entry. A line that says so, or that is headed by a name, gives the form on record, which may keep a tag or linker.
androgen receptor splice variant 7 (endogenous) (human (endogenous in 22Rv1)) (P10275, form named): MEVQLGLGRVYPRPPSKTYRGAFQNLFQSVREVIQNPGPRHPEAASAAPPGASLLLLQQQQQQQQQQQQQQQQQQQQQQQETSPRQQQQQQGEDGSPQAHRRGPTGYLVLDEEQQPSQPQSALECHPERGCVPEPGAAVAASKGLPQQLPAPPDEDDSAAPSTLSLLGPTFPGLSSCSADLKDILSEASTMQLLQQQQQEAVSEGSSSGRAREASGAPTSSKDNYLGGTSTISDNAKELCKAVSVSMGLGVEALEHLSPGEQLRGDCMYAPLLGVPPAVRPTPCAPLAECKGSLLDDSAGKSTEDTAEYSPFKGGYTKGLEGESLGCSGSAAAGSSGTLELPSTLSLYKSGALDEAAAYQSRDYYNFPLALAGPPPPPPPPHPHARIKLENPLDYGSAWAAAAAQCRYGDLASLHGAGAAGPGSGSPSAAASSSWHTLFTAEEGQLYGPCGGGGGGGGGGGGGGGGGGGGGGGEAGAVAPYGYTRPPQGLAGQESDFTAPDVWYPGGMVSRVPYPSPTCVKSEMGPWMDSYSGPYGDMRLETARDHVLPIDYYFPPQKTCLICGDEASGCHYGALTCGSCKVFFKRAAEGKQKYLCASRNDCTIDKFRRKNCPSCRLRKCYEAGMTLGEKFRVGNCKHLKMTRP
UniProt Q09472: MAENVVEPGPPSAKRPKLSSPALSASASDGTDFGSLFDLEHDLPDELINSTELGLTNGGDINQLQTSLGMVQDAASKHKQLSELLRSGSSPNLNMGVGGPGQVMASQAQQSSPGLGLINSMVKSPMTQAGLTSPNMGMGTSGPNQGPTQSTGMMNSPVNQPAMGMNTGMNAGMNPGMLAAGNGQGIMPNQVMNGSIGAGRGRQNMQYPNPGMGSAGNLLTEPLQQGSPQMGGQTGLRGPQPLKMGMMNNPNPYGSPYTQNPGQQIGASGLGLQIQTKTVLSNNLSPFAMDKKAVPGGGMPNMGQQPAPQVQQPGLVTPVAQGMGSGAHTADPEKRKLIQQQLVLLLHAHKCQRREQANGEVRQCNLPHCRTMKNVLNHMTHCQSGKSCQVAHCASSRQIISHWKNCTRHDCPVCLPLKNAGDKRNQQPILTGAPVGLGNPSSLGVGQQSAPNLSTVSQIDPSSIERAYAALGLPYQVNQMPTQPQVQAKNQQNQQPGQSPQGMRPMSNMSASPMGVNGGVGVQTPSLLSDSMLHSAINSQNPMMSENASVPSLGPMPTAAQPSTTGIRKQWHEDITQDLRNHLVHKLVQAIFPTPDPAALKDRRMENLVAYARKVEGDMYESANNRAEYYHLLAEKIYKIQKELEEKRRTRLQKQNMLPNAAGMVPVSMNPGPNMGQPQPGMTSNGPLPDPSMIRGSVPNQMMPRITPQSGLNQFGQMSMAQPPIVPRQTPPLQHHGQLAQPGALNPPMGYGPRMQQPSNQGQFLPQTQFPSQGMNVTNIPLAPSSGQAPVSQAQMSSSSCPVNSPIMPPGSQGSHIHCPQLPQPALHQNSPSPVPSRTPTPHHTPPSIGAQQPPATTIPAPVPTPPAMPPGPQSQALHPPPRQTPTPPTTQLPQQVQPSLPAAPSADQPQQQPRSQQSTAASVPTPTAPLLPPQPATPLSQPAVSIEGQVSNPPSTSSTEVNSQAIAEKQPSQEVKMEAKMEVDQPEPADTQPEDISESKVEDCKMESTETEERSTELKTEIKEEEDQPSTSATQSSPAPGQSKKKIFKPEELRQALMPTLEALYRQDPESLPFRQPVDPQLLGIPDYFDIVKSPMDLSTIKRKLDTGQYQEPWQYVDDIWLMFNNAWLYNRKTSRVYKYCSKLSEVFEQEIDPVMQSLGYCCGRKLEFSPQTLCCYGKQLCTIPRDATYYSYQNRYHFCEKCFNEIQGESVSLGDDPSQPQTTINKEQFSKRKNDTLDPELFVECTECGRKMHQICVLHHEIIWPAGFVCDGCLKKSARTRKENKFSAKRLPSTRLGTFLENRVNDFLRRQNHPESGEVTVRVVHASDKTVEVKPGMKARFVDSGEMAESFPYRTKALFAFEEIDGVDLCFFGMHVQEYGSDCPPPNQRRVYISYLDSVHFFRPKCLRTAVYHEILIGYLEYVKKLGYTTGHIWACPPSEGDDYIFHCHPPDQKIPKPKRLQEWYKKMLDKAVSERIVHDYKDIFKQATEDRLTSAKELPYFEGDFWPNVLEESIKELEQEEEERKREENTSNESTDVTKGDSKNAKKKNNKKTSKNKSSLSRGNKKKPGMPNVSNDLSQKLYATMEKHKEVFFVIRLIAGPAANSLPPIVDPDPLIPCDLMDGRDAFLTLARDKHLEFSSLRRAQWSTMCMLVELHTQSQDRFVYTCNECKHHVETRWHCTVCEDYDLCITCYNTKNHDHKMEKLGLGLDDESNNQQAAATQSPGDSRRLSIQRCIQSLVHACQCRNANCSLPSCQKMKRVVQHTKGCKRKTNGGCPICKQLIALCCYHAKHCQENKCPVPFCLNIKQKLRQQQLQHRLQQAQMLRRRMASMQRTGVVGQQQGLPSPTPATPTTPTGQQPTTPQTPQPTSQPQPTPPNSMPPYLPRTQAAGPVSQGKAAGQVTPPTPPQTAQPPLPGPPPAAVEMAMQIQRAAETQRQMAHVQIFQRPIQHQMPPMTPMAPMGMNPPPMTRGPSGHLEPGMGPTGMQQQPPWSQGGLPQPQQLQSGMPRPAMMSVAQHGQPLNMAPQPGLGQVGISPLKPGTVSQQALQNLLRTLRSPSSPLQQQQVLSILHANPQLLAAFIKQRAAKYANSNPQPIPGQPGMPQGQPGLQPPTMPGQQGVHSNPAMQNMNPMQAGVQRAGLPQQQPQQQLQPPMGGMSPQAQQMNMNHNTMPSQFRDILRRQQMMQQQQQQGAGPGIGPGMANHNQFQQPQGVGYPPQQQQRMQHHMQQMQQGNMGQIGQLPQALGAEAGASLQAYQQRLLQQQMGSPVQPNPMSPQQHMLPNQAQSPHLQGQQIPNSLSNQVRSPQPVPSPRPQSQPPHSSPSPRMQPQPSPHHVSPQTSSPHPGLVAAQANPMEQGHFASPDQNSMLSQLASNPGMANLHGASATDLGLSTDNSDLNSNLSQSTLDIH
UniProt P25490: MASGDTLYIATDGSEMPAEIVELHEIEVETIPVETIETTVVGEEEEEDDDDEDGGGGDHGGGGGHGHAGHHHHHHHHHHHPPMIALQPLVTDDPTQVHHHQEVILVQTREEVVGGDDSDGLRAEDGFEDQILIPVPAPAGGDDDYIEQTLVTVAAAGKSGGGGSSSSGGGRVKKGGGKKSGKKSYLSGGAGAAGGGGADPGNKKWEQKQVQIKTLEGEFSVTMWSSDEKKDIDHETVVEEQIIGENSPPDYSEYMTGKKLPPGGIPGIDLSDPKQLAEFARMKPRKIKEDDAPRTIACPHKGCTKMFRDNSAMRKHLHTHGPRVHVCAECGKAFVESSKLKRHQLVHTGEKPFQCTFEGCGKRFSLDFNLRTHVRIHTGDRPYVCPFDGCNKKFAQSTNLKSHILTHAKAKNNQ

| Substance | binding [1] | binding [2] | binding [3] |
| --- | --- | --- | --- |
| HA-tagged YY1, WT (full-length) (from UniProt P25490 1-414) | binds |  |  |
| Yin Yang 1 (endogenous) (from UniProt P25490 1-414) |  | binds | binds |
